PubChem BioAssay AID1224830 | NIAID – 2016
This is an unselected part of about 18,000 reagents tested. Of all reagents, about 2,900 (16%) were called active. 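Calls are made per well; low scores hint the gene aids the LPS response, high scores that it dampens it.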 Repeated entries: four replicate wells of each siRNA pool. Reagent sequences are not shown.

Purpose: 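Regulators of TLR4 signalling towards TNF-alpha in macrophage-like cells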 (primary screen)
System: human THP-1 monocytic leukaemia cells, TNF dual-luciferase reporter clone, PMA-differentiated to macrophage-like cells
Reagents: siRNA pool against human genes, 50 nM
Time to read-out: LPS for 4 h, given about 3 days after siRNA transfection
Challenge: bacterial LPS (TLR4 ligand), 10 ng/ml
Read-out: 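Ratio of firefly to renilla light, scaled to the plate median and expressed as a robust z-score per replicate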
Scale: TNF reporter robust z-score: higher = stronger TNF reporter response to LPS
Hit rule: 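a well is active when its z-score exceeds 2.8 or falls below -1.5; control wells carry no call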

gene | TNF reporter robust z-score | Outcome
RIMKLA | -0.8 | inactive
RIMKLA | -0.31 | inactive
RIMKLA | -0.83 | inactive
RIMKLA | 0.22 | inactive
SCIN | -0.48 | inactive
SCIN | -0.68 | inactive
SCIN | -1.19 | inactive
SCIN | 0.32 | inactive
GLUD1 | -0.11 | inactive
GLUD1 | 0.41 | inactive
GLUD1 | -0.27 | inactive
GLUD1 | 0.8 | inactive
TTC12 | -0.16 | inactive
TTC12 | 0.53 | inactive
TTC12 | 0.06 | inactive
TTC12 | 0.76 | inactive
NLGN2 | -1.39 | inactive
NLGN2 | -0.47 | inactive
NLGN2 | 0 | inactive
NLGN2 | 0.15 | inactive
OSTN | -0.29 | inactive
OSTN | 1.05 | inactive
OSTN | -0.58 | inactive
OSTN | 0.75 | inactive
JPT1 | -1.42 | inactive
JPT1 | -0.2 | inactive
JPT1 | -0.15 | inactive
JPT1 | 0 | inactive
ETFDH | -0.33 | inactive
ETFDH | 0.78 | inactive
ETFDH | 0.55 | inactive
ETFDH | 0.28 | inactive
HOMER2 | 0.74 | inactive
HOMER2 | 0.91 | inactive
HOMER2 | 0.05 | inactive
HOMER2 | -0.24 | inactive
ETAA1 | 0.17 | inactive
ETAA1 | 0.92 | inactive
ETAA1 | 0.82 | inactive
ETAA1 | 0.72 | inactive
GPI | -0.54 | inactive
GPI | -0.11 | inactive
GPI | -0.61 | inactive
GPI | -0.28 | inactive
DHX37 | 0.16 | inactive
DHX37 | 1.07 | inactive
DHX37 | 1.3 | inactive
DHX37 | 1.59 | inactive
XRCC1 | 1.31 | inactive
XRCC1 | 0.84 | inactive
XRCC1 | -0.48 | inactive
XRCC1 | -0.42 | inactive

21 consecutive reagents already listed, for reference:
gene | TNF reporter robust z-score | Outcome
OSTN | 1.05 | inactive
OSTN | -0.58 | inactive
OSTN | 0.75 | inactive
JPT1 | -1.42 | inactive
JPT1 | -0.2 | inactive
JPT1 | -0.15 | inactive
JPT1 | 0 | inactive
ETFDH | -0.33 | inactive
ETFDH | 0.78 | inactive
ETFDH | 0.55 | inactive
ETFDH | 0.28 | inactive
HOMER2 | 0.74 | inactive
HOMER2 | 0.91 | inactive
HOMER2 | 0.05 | inactive
HOMER2 | -0.24 | inactive
ETAA1 | 0.17 | inactive
ETAA1 | 0.92 | inactive
ETAA1 | 0.82 | inactive
ETAA1 | 0.72 | inactive
GPI | -0.54 | inactive
GPI | -0.11 | inactive

Next entries follow.
gene | TNF reporter robust z-score | Outcome
ANKRD35 | 1.19 | inactive
ANKRD35 | -0.72 | inactive
ANKRD35 | -1.09 | inactive
ANKRD35 | -0.76 | inactive
ANKRD35 | 3.67 | active
ANKRD35 | 1.5 | inactive
ANKRD35 | 2.21 | inactive
ANKRD35 | 1.26 | inactive
MAJIN | -0.65 | inactive
MAJIN | -1.06 | inactive
MAJIN | -0.69 | inactive
MAJIN | -0.52 | inactive
ANAPC2 | 0.4 | inactive
ANAPC2 | 0.95 | inactive
ANAPC2 | 0.64 | inactive
ANAPC2 | 1.16 | inactive
HBM | 0.93 | inactive
HBM | 0.17 | inactive
HBM | 0.91 | inactive
HBM | 0.04 | inactive
MYMK | 0.49 | inactive
MYMK | 0.57 | inactive
MYMK | -1.21 | inactive
MYMK | -0.71 | inactive
SPANXN5 | 3.45 | active
SPANXN5 | 3.92 | active
SPANXN5 | 4.09 | active
SPANXN5 | 5.37 | active
FN3K | 0.25 | inactive
FN3K | 0.02 | inactive
FN3K | -0.28 | inactive
FN3K | 1.22 | inactive
TOR1B | 0.35 | inactive
TOR1B | 3.08 | active
TOR1B | 0.25 | inactive
TOR1B | 0.13 | inactive
GABBR1 | 1.49 | inactive
GABBR1 | 0.27 | inactive
GABBR1 | 0.53 | inactive
GABBR1 | 1.07 | inactive
CD274 | -0.38 | inactive
CD274 | 0.3 | inactive
CD274 | 1.94 | inactive
CD274 | 6.27 | active
LRRCC1 | 0.82 | inactive
LRRCC1 | 0.8 | inactive
LRRCC1 | -0.47 | inactive
LRRCC1 | 1.8 | inactive
LINC03042 | -0.84 | inactive
LINC03042 | -0.03 | inactive
LINC03042 | -0.26 | inactive
LINC03042 | 0.61 | inactive
ACTR1A | 0.03 | inactive
ACTR1A | 0.5 | inactive
ACTR1A | 1.9 | inactive
ACTR1A | 2.73 | inactive
SPOCK1 | 0.34 | inactive
SPOCK1 | -0.19 | inactive
SPOCK1 | -0.04 | inactive
ZNF154 | -0.97 | inactive
ZNF154 | -0.88 | inactive
ZNF154 | 0.95 | inactive
ZNF154 | -0.45 | inactive
ANO5 | 2.2 | inactive
ANO5 | -0.48 | inactive
ANO5 | -0.21 | inactive
ANO5 | -0.12 | inactive
MLLT1 | -0.74 | inactive
MLLT1 | -0.29 | inactive
MLLT1 | -1.41 | inactive
MLLT1 | -0.49 | inactive
DEFB103B | 2.28 | inactive
DEFB103B | 2.49 | inactive
DEFB103B | -0.38 | inactive
DEFB103B | 0.57 | inactive
SMUG1 | 1.2 | inactive
SMUG1 | 1.65 | inactive
SMUG1 | 1.58 | inactive
SMUG1 | 1.32 | inactive
HCK | -0.07 | inactive
HCK | -0.09 | inactive
HCK | 3.33 | active
HCK | 0.92 | inactive
KXD1 | -0.77 | inactive
KXD1 | -0.24 | inactive
KXD1 | -0.01 | inactive
KXD1 | 0.47 | inactive
FUT9 | -1.28 | inactive
FUT9 | -0.28 | inactive
FUT9 | 0.73 | inactive
FUT9 | 3.59 | active
